Data: patent publication US9309298B2, “Anti-bacterial polypeptides and pathogen specific synthetic antibodies” (priority 2011, dated 2016)
At least one compound was matched to its structure with a doubt left. Bridge positions count the residues as written; N and C are the ends. Ends that are not written are not given here. I, II: the chains in the order shown. * marks the point of attachment. StBu = CC(C)(C)S*

Tested on: E. coli O111:B4, S. mutans, B. subtilis
Assay: Solution inhibition assay, other strains
Type: cell-based
Details: range 10-25 uM

With “I: DRIFHKMQHKPYKIKKRGSGGGKC(StBu)-NH2 / II: RWRRHKHFKRPHRKHKRGSG (amide I:23-II:C) [Synbody]” the “Increase of specific activity over the single peptides” value was “not for other strains”.
